# Laboratory results: PubChem BioAssay AID1347076 (National Center for Advancing Translational Sciences (NCATS), 2019)
# Values joined by “and” are separate entries in the source; they are usually repeats but may differ in a detail not shown here. Equal entries are not always repeated. The whole screen tested about 400,000 compounds, of which about 13,000 (3.2%) were called active. Inconclusive results, whose numbers are uncertain, are shown with a selection of clear calls. Calls come from the whole dose curve; as a rule, active = well fitted cell-killing curve with a large enough effect; inconclusive = small, poorly fitted or top-dose-only effect, or effect the other way; inactive = flat fitted curve, though single readings scatter. Potencies of inconclusive entries are doubtful fits and often do not repeat.
# Assay: qHTS assay for MDR1-selective chemotherapeutics: Primary screen using the drug-selected MDR subline cells KB-V1; note: nearly all actives have a fitted effect of over 60% in size
# Conditions: KB-V1 MDR cells viability, CellTiter-Glo, 72 h; activity change, negative = cytotoxicity: at 46.1 µM (top of the series)
# Summary of the method: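 Compound-treated KB-V1 multidrug-resistant cells, 72 h, 37 degrees C; viability by CellTiter-Glo. Fitted qHTS curves give the values.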
# % is set by controls: 0 for no effect and ±100 for the full control effect; potency is the fitted concentration of half-maximal effect.
Compound,Potency,"activity change, negative = cytotoxicity"
Cc1ccc(C(C)C)c(OCc2ccc(C(=O)N/N=C/c3ccc(C(=O)O)cc3)cc2)c1,"inconclusive: 18.4 µM [cytotoxic, partial curve]",
CC(CNC1CCCCC1)OC(=O)c1ccc([N+](=O)[O-])cc1 (centres undefined),"inconclusive: 14.6 µM [cytotoxic, partial curve]",
COC(=O)/C=C/c1ccc2c(c1)OCO2,"inconclusive: 29.1 µM [rising, single point]",
COCCNC(=O)CCCCCNS(=O)(=O)c1ccc(C)cc1,"inconclusive: 29.1 µM [cytotoxic, single point]",
CCC(c1nnnn1-c1ccc(OC)cc1)N1CCN(C/C=C/c2ccccc2)CC1 (centres undefined),,inactive: -16.3%
CC(C)(C)C(=O)/C=c1\[nH]c(=O)/c(=C\c2ccc(F)cc2)s1,"inconclusive: 13 µM [cytotoxic, partial curve]",
CNC(=S)SCCOc1ccccc1C,"inconclusive: 2.06 µM [rising, partial curve, poor fit]",
COc1ccc(-c2cc(C(C)=O)c(C)n2CCC(=O)Nc2ccc(C(F)(F)F)cc2)cc1,,inactive: -9.69%
CC12CCC(=O)C=C1CCC1C2CCC2(C)C(c3csc(N)n3)CCC12 (centres undefined),active: 20.6 µM,
COC(=O)/C=C/c1ccccc1S(=O)(=O)N(Cc1ccccc1)Cc1ccco1,active: 7.31 µM,
CCn1ccc2c(OCC(=O)NCc3ccc(C)cc3)cccc2c1=O,"inconclusive: 16.4 µM [cytotoxic, single point]",
COC(=O)[C@]1(C)N[C@H](CN(C)C(=O)c2ccc(C)cc2)[C@@H]2C(=O)N(Cc3ccccc3)C(=O)[C@@H]21,,inactive: -0.0349%
O=C(CSc1ccc2nnc(CCNC(=O)c3ccc(F)cc3)n2n1)NCC1CCCO1 (centres undefined),"inconclusive: 29.1 µM [cytotoxic, single point]",
COc1ccccc1NC(=O)Cn1c(=O)n(Cc2ccccc2)c(=O)c2c3c(sc21)CN(C(C)=O)CC3,"inconclusive: 29.1 µM [rising, single point]",
C=C[C@]1(C)C[C@@H](OC(=O)CSCCN(CC)CC)[C@]2(C)C(C)CC[C@]3(CCC(=O)[C@H]32)[C@@H](C)[C@@H]1O (some centres undefined),"inconclusive: 2.06 µM [cytotoxic, full curve, poor fit] and inconclusive: 2.06 µM [cytotoxic, full curve]",
COc1cc(C2NC(=O)NC(c3ccccc3)=C2C(C)=O)cc([N+](=O)[O-])c1O (centres undefined),"inconclusive: 20.6 µM [rising, single point]",
COC(=O)c1ccc(Oc2nc(NC(C)C)nc(NC(C)C)n2)cc1,,inactive: 22.2%
COc1cc(NC(=O)Nc2nnc([C@H]3C[C@H](O)[C@@H](CO)O3)s2)cc(OC)c1,,inactive: 2.73%
CCCc1nc2ccccc2n1Cc1ccccc1OC,active: 14.6 µM,
O=C(Nc1ccc(N2CCCC2)cc1)c1cc([N+](=O)[O-])ccc1N1CCOCC1,"inconclusive: 10.3 µM [cytotoxic, partial curve]",
CC1(c2cccc(Br)c2)NC(=O)N(CC(=O)Nc2ccc3c(c2)OCO3)C1=O (centres undefined),,inactive: -3.21%
O=C(COc1ccccc1F)Nc1nc(-c2ccccn2)cs1,active: 4.61 µM,
Cc1ccc(Nc2nc(CSc3nnc(-c4ccc(F)cc4)n3C)cs2)cc1,active: 6.51 µM,

# Five entries out of the list, sorted by formula weight, ascending.
Compound,Potency,"activity change, negative = cytotoxicity"
CNC(=S)SCCOc1ccccc1C,"inconclusive: 2.06 µM [rising, partial curve, poor fit]",
CCn1ccc2c(OCC(=O)NCc3ccc(C)cc3)cccc2c1=O,"inconclusive: 16.4 µM [cytotoxic, single point]",
COc1cc(NC(=O)Nc2nnc([C@H]3C[C@H](O)[C@@H](CO)O3)s2)cc(OC)c1,,inactive: 2.73%
Cc1ccc(Nc2nc(CSc3nnc(-c4ccc(F)cc4)n3C)cs2)cc1,active: 6.51 µM,
COc1ccc(-c2cc(C(C)=O)c(C)n2CCC(=O)Nc2ccc(C(F)(F)F)cc2)cc1,,inactive: -9.69%

# Carrying on.

Compound,Potency,"activity change, negative = cytotoxicity"
O=C(N/C=C/c1ccccc1)c1ccccc1,"inconclusive: 29.1 µM [rising, single point]",
COCCn1ccc2c(OCC(=O)Nc3ccccc3F)cccc2c1=O,,inactive: -3%
COc1cccc(-c2nn(C)c3sc(C(=O)Nc4ccc5c(c4)OCCO5)cc23)c1,active: 18.4 µM,
O=C(NCC1CCCN(C(=O)c2cccnc2)C1)c1ccc(-c2ccccc2)cc1 (centres undefined),"inconclusive: 16.4 µM [cytotoxic, partial curve, poor fit]",
Cc1cc(C)cc(CSCC(=O)N/N=C/c2ccc(OCC(=O)NCc3ccco3)cc2)c1,"inconclusive: 18.4 µM [cytotoxic, single point]",
CCc1ccc2nc(SCC(=O)Nc3ccccc3N3CCOCC3)c(C#N)cc2c1,active: 5.8 µM,
CCOc1ccc(/C=N/NC(=O)c2[nH]ncc2Br)c(O)c1,"inconclusive: 3.66 µM [cytotoxic, partial curve, poor fit]",
C=CCn1c(C)nnc1SCC(=O)NC1CC1,"inconclusive: 4.61 µM [rising, full curve, poor fit]",
CCOC(=O)Cc1csc(SCC(=O)/C(C#N)=C(\C)N)n1,,inactive: 24.3%
Cc1ccc(C)c(N(CC(=O)NC2CCCC2)S(=O)(=O)c2ccccc2)c1,"inconclusive: 6.51 µM [cytotoxic, partial curve]",
COC(=O)CSC(=S)N1C(C)CCCC1C (centres undefined),"inconclusive: 25.9 µM [rising, single point]",
COc1cc(/C=N/Nc2ccc(Cl)c(C(=O)O)c2)ccc1OC(=O)c1ccccc1F,"inconclusive: 16.4 µM [rising, partial curve, poor fit]",
CSc1ccccc1NC(=O)C1(C)CCN1C(=O)Cc1ccc(-c2ccccc2)cc1 (centres undefined),"inconclusive: 9.2 µM [cytotoxic, partial curve]",
COCC(=O)N(CCc1ccc(OC)c(OC)c1)Cc1cc2cc(C)ccc2nc1Cl,"inconclusive: 13 µM [cytotoxic, partial curve]",
N#C/C(=C/c1cn(Cc2ccccc2Cl)c2ccccc12)C(=O)Nc1cccc(Cl)c1,,inactive: -19.6%
CCC1CCc2sc(C(=O)NCC(c3ccc(OC)cc3)N3CCCC3)cc2C1 (centres undefined),active: 9.2 µM,
O=C(N/N=C/c1sc2ccccc2c1O)c1cccc2ccccc12,"inconclusive: 5.17 µM [cytotoxic, partial curve, poor fit]",
Cc1ccc2c(c1)-c1[nH]c(=S)ncc1CS2,,inactive: 20.5%
COCCCn1c(C(=O)N2CC(C)OC(C)C2)cc2c(=O)n3ccccc3nc21 (centres undefined),,inactive: -16.6%
Cc1ccc(OCCCCNC(C)c2ccccc2)c(C)c1 (centres undefined),,inconclusive: -36.8%
COc1cccc(CN2C(=O)c3ccccc3S2(=O)=O)c1,,inactive: -0.136%
COc1ccccc1N=c1oc2c(OC)cccc2cc1C(=O)NCc1ccco1,"inconclusive: 6.51 µM [cytotoxic, partial curve]",
Cc1cc(NC(=O)C2CCN(C(=O)c3ccco3)CC2)ccc1Br,"inconclusive: 29.1 µM [cytotoxic, single point]",

# Reformatted: results already given
Compound	Potency	activity change, negative = cytotoxicity
Cc1ccc2c(c1)-c1[nH]c(=S)ncc1CS2		inactive: 20.5%
COCCCn1c(C(=O)N2CC(C)OC(C)C2)cc2c(=O)n3ccccc3nc21 (centres undefined)		inactive: -16.6%

# Next records follow:

Compound,Potency,"activity change, negative = cytotoxicity"
CC(C)(C)c1ccc(C(=O)NCC2CCCN2S(=O)(=O)c2ccccc2)cc1 (centres undefined),"inconclusive: 4.61 µM [cytotoxic, partial curve]",
COc1cc(C(=O)NC(=S)Nc2ccc3[nH]c(=O)[nH]c3c2)cc(OC)c1OC,"inconclusive: 25.9 µM [rising, single point]",
O=C(C1CCC(CNS(=O)(=O)c2cccs2)CC1)N1CCCCC1 (centres undefined),"inconclusive: 18.4 µM [cytotoxic, single point]",
Cc1cc(=O)n(Cc2cccc(F)c2)c2c1c(C)nn2-c1cccc(F)c1,,inactive: 3.11%
Cc1ccc(CCNC(=O)C2CCC(=O)N2Cc2ccc(F)cc2)cc1 (centres undefined),"inconclusive: 6.51 µM [cytotoxic, full curve]",
C/C(=N/NS(=O)(=O)c1cc(C)ccc1C)c1ccncc1,"inconclusive: 36.6 µM [rising, single point]",
Cc1cc(C)nc(SCc2csc(N)n2)n1,"inconclusive: 32.6 µM [rising, partial curve, poor fit]",
CCc1ccc(-c2nn(CC(=O)Nc3ccccc3C)c3c2cnc2ccc(C)cc23)cc1,"inconclusive: 3.66 µM [rising, full curve]",
COc1ccc(NC(=O)C(C)(C)Oc2ccc(Cl)cc2)cn1,active: 14.6 µM,
O=[N+]([O-])c1cccnc1S(=O)(=O)c1ccccc1,"inconclusive: 20.6 µM [cytotoxic, single point]",
Cc1ccc(C)c(NC(=S)c2ccccn2)c1,,inactive: -8.1%
CC(C)CCN1CCN(Cc2nc3c(s2)CCCC3)CC1CCO (centres undefined),"inconclusive: 5.8 µM [cytotoxic, partial curve, poor fit]",
Cc1ccc(C(=O)Nc2ccc(F)cc2)cc1NC1=NC2CS(=O)(=O)CC2S1 (centres undefined),"inconclusive: 0.58 µM [rising, full curve]",
COc1ccc(/C=N/NC(=O)c2cccnc2)cc1CSc1nc2ccccc2s1,active: 11.6 µM,
CCOc1ccccc1N1CCN(C(=O)c2cccc(S(=O)(=O)N3CCOCC3)c2)CC1,active: 23.1 µM,
O=C(N/N=C/c1ccccc1[N+](=O)[O-])c1ccc2nc[nH]c2c1,"inconclusive: 23.1 µM [rising, partial curve, poor fit]",
COc1cc([N+](=O)[O-])ccc1N1C(=O)C2C3C=CC(C4CC34)C2C1=O (centres undefined),"inconclusive: 29.1 µM [cytotoxic, single point]",
CCOCCCNC(=O)CCSc1ccc(C)cc1,"inconclusive: 29.1 µM [rising, single point]",
O=C(C1CC(=O)N(c2ccc3c(c2)OCCO3)C1)N1CCN(S(=O)(=O)c2ccccc2F)CC1 (centres undefined),"inconclusive: 23.1 µM [cytotoxic, single point]",
Cc1ccc(C(=O)/C=C/c2ccc(-c3ccc(C)cc3)o2)cc1,,inactive: 1.79%
CCc1cccc(NC(=O)c2ccc3c(=O)n4c(nc3c2)CCCCC4)c1,"inconclusive: 4.61 µM [cytotoxic, full curve, poor fit]",
CCOC(=O)[C@]12CCCC=C1N(Cc1ccccc1)C(=O)[C@H](CC(=O)NCCCCc1ccccc1)C2,"inconclusive: 7.31 µM [cytotoxic, partial curve, poor fit]",
CCc1nnc(NC(=O)c2cc(-c3ccco3)nc3ccccc23)s1,,inactive: -5.88%
